Results from patent US20250134869A1, “Pyrrolo[2,3-d]pyrimidinyl, Pyrrolo[2,3-b]pyrazinyl and Pyrrolo[2,3-d]pyridinyl Acryla-mides” (Pfizer Inc, priority 2021, published 2025).

Test: Stability of JAK3 covalent inhibitors in human whole blood
Settings: 1 μM, 37° C.

SMILES	Human blood stability t1/2
C=CC(=O)N1[C@H]2CC[C@@H]1[C@H](Nc1ncnc3[nH]ccc13)CC2 [Example 16, 1-((1R,2R,5R)-2-((7H-Pyrrolo[2,3-d]pyrimidin-4-yl)amino)-8-azabicyclo[3.2.1]octan-8-yl)prop-2-en-1-one]	>5.975 h
C=CC(=O)N1C2CCC(Nc3ncnc4[nH]ccc34)C1CC2 (centres unmarked) [Example 56, 1-(2-((7H-Pyrrolo[2,3-d]pyrimidin-4-yl)amino)-8-azabicyclo[3.2.1]octan-8-yl)prop-2-en-1-one]	>6 h
